The inconclusive results got no clear call from the source; some entries with a clear call stand among them for comparison. Potencies beside an inconclusive call are fits to weak or partial responses and may not hold up. Active and inactive are the calls of the source. Calls come from the whole dose curve; as a rule, active = well fitted curve in the direction sought with a large enough effect; inconclusive = small, poorly fitted or top-dose-only effect, or effect the other way, or another doubt; inactive = no such curve, though single readings can be large or run the other way.
Experiment: qHTS Assay for Identifying a Potential Treatment of Ataxia-Telangiectasia: Secondary assay (no NCS) SAR for Probe
Details: […] A-T fibroblasts, pKAP1 AlphaLISA; series mostly up to 76.9 µM
Excerpt: NIH Chemical Genomics Center [NCGC] NIH Molecular Libraries Probe Centers Network [MLPCN] MLPCN Grant: MH089030-01 Assay Submitter (PI): Wei Zheng and Yosef Shiloh Ataxia-telangiectasia (A-T) is a devastating and progressive disease for which, there is no cure. Although A-T is a multisystem disease, it is stereotyped characterized by its neurological symptoms such as truncal ataxia, due to cerebellar cortical degeneration of the Purkinje and granule cells. Other symptoms of A-T are telangiectasias (dilated blood vessels), primary immunodeficiency, marked sensitivity to ionizing radiation (IR), chromosomal instability and predisposition to cancer. The underlying genetic cause of A-T is null mutations in the ATM (A-T mutated) gene. ATM is a nuclear serine/threonine kinase that functions as a master regulator of the cellular responses to double strand breaks (DSBs) in the DNA. Upon activation by DSBs, ATM phosphorylates a plethora of downstream targets, including KAP-1 on […]. KAP-1 phosphorylation occurs shortly in response to DSBs and mediates global chromatin relaxation, which facilitates DSB repair. To screen for small molecules that will compensate for the loss of ATM in cells derived from A-T patients, we monitored KAP-1 phosphorylation as a readout for ATM-like activity using an AlphaLISA assay. This secondary assay omits NCS, which creates double-stranded DNA breaks, tested against analogs of the probe molecule.
qHTS Assay Protocol: Step,Parameter,Value,Description 1. Cell Plating, 3 ul, 500 cells/well in OPTI-MEM, 1% FBS, 1% Pen/Strep 2. Incubation, 16-24 hr, 37C, 5% CO2, 95% humidity 3. Library compounds, 23 nl, 76.7 - 0.61uM dilution series final concentration 4. Incubation, 60 min, 37C, 5% CO2, 95% humidity 5. Reagent, 1 ul, PBS + 0.05% BSA + 0.005% Tween 20 6. Incubation, 30 min, 37C, 5% CO2, 95% humidity 7. Reagent, 1 ul, Premixed detection reagents and lysis buffer 8. Reagent, 1 ul, 0.6% Antifoam A 9. […] Readout, EnVision, EnVision plate reader. […] EnVision protocol for 1536-well AlphaScreen read (30ms excitation, 100ms read), about 10 min/plate.

Question: With COc1cc(/C=C/C(=O)n2cnc3ccccc32)cc(OC)c1OC as the compound, how does the Potency read?
Answer: The Potency was inconclusive: 4.12 µM [activator, full curve].

Question: With COc1ccccc1C(=O)/C=C/c1ccccc1 as the compound, how does the Potency read?
Answer: The Potency was “inactive”.

Question: With C=CCSc1nc2ccccc2n1C(=O)/C=C/c1ccc(OC)c(OC)c1 as the compound, how does the Potency read?
Answer: Its Potency is inconclusive: 0.0823 µM [activator, full curve, poor fit].

Reference: PubChem BioAssay AID504361 (National Center for Advancing Translational Sciences (NCATS), 2011)
